Laboratory results as given in the supplement of paper PMC10849652.
The list shows a part of the results.

Chains of the proteins cited; added tags and fusions are not shown. Lines headed by an entry give the natural chain unless they say otherwise; changes in a name come on top.
UniProt Q9NZJ9: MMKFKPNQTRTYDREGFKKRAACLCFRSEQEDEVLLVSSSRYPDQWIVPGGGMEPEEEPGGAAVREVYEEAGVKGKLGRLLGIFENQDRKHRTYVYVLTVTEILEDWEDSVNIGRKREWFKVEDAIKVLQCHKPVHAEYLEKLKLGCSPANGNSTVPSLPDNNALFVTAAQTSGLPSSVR
UniProt Q13416: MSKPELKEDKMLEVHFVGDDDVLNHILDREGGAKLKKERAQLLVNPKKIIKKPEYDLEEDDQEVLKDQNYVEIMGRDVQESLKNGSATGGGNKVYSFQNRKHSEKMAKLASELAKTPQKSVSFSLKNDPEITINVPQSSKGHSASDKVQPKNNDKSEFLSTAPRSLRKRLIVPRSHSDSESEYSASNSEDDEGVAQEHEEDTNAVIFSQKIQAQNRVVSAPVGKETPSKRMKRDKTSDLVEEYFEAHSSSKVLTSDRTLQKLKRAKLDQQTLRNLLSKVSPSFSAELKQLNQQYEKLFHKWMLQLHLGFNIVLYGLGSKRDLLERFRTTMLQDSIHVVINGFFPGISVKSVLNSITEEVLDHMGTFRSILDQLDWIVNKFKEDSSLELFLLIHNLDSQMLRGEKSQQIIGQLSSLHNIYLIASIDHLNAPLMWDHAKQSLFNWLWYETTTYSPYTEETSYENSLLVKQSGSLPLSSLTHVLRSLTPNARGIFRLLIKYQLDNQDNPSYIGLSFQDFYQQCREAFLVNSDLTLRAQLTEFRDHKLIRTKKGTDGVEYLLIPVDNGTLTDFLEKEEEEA
UniProt Q969T7: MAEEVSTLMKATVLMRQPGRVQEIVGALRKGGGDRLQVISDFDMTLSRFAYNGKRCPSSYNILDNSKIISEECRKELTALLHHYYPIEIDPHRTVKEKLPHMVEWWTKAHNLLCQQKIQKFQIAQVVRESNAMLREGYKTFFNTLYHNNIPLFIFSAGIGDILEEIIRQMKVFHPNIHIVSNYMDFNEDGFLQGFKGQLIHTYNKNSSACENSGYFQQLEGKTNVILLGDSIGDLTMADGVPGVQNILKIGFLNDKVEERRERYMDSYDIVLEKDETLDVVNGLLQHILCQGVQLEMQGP
UniProt Q9Y6R0: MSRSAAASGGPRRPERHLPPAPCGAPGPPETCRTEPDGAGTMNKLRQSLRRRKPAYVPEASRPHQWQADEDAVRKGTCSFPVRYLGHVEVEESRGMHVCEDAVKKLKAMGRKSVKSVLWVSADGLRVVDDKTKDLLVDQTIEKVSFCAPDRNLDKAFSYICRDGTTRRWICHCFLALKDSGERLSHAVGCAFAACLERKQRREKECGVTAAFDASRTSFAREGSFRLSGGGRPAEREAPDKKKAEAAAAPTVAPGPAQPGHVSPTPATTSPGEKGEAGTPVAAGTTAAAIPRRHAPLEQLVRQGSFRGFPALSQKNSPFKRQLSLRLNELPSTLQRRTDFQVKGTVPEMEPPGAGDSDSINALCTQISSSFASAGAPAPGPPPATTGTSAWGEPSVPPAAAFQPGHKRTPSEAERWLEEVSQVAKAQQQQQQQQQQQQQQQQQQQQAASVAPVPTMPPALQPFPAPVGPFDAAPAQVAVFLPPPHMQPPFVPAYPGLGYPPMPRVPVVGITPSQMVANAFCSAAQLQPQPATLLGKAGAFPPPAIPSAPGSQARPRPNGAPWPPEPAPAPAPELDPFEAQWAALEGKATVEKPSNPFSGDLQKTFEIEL
UniProt Q9P0S3: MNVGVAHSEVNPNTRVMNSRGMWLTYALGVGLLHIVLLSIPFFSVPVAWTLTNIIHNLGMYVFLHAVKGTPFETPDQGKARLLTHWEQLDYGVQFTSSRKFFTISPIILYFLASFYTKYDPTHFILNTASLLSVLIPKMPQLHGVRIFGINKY
UniProt P0C024: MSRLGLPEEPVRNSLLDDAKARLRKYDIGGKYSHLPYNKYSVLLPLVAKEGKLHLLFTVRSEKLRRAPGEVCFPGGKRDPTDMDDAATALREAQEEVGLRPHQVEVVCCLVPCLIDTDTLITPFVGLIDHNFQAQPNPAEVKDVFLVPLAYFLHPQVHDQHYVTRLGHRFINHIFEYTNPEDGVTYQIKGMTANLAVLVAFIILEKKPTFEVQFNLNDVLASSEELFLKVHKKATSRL

Assays:
Assay in all cases: log2 fold change, soluble protein after heating vs DMSO (PISA); higher = thermal stabilisation; K562 cells, 10 uM, 30 min; active = over 0.2 and 3.5 SD of the protein, either way, in both replicates (recomputed)
[1] = compound: C1=CC=C(C=C1)[C@H](COC2=CC3=C(C=C2)NC(=O)N3)NC(=O)C4=CC=CN(C4=O)CC5=CC(=C(C=C5)F)F
Method in brief: (§1)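 Thermal stability values are relative to control samples and come from duplicates. They are expressed as log2 fold changes. For measurement, K562 cells (2×10^6 cells/mL) received 10 μM compound for 30 min, and aliquots were heated for 3 min over 48°C-58°C, pooled, and extracted at 4°C in PBS with 0.5% NP-40. Soluble protein, the supernatant after 21,000xg for 90 min, was quantified by TMTpro 16plex LC-MS/MS with equalised channel sums.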

[2] = compound: CC1=C(SC2=C1C(=N[C@H](C3=NN=C(N32)C)CC(=O)N)C4=CC=C(C=C4)Cl)C
Method in brief: as §1

[3] = compound: CC1=C2C(=CC=C1)N=C(N(C2=O)C3=CC=CC=C3C)CN4C=NC5=C(N=CN=C54)N
Method in brief: as §1

[4] = compound: Cc1sc2c(c1C)C(c1ccc(Cl)cc1)=N[C@@H](CC(=O)OC(C)(C)C)c1nnc(C)n1-2
Method in brief: as §1

[5] = compound: c1ccc([C@@H]2C[C@H]2NC2CCNCC2)cc1
Method in brief: as §1

Measured: log2 fold change

NUDT4 (UniProt Q9NZJ9)
inactive: [1] -0.052 | [2] 0.04 | [3] 0.05 | [4] 0.017 | [5] -0.023

ORC2 (UniProt Q13416)
inactive: [1] -0.073 | [4] 0

NT5C3B (UniProt Q969T7)
inactive: [1] 0.001 | [2] -0.023 | [3] 0 | [4] -0.071 | [5] 0.016

OBSCN (UniProt A6NGQ3)
inactive: [1] -0.27 | [2] -0.131 | [4] -0.115 | [5] 0.164

NUMBL (UniProt Q9Y6R0)
inactive: [1] -0.058 | [2] -0.084 | [3] 0.009 | [5] -0.009

ORMDL1 (UniProt Q9P0S3)
inactive: [4] 0.002

2 entries drawn at random from the list so far:
ORC2 (UniProt Q13416)
inactive: [1] -0.073 | [4] 0

NUMBL (UniProt Q9Y6R0)
inactive: [1] -0.058 | [2] -0.084 | [3] 0.009 | [5] -0.009

(list continues)

NUDT5 (UniProt C9JYY9)
inactive: [1] -0.18 | [2] 0.02 | [3] 0.132 | [4] -0.209 | [5] 0

NUDT7 (UniProt P0C024)
inactive: [1] -0.077 | [4] -0.047
